According to US20100022637A1, “IDENTIFICATION OF ANTI-CANCER COMPOUNDS AND COMPOUNDS FOR TREATING HUNTINGTON'S DISEASE AND METHODS OF TREATMENT THEREOF” (THE TRUSTEES OF COLUMBIA UNIVERSITY IN THE CITY OF NEW YORK, priority 2005, published 2010):
At least one structure is not confirmed: it was looked up by name or label, or the drawing left a doubt.

System: RKO-E6 cells
Assay: Alamar Blue viability assay, RKO-E6
Format: cell-based, human
Details: in words
Protocol: RKO colon carcinoma, human (ATCC, order # CRL-2577), RKO-E6 colon carcinoma transfected with HPV E6 inserted in pCMV.3 (ATCC, order # CRL-2578) were grown in MEM with 2 mM L-glutamine and Earle's BBS adjusted to contain 1.5 g/L NaHCO3, 0.1 mM non-essential amino acids and 1.0 mM sodium pyruvate, and supplemented with 10% fetal bovine serum, penicillin and streptomycin (pen/strep). Both cell lines were incubated at 37° C. in a humidified incubator containing 5% CO2.
The Alamar Blue assay incorporates a fluorimetric/colorimetric growth indicator that changes color in the response to chemical reduction by viable cells (Nociari 1998). Cells were seeded at a density of 3,000 cells (57 μl) per well in a 384-well black, clear-bottom plates using a syringe bulk dispenser (Zymark Sciclone ALH). […] Fluorescence intensity was determined using a Packard Fusion platereader with a 535 nm excitation filter and a 590 nm emission filter. The average fluorescence for the whole plate was used as a positive control. Average percentage inhibition for each well was determined using our freely available SLIMS software (Kelley et al., 2004). […]
Each cell line (RKO, RKO-E6, HeLa and TC32) was treated with a dose combination matrix of doxorubicin and a selected hit compound. […] The average percent inhibition of cell proliferation, measured with Alamar Blue, was determined using the following formula: […]

Q: What does the source list for `CCCCCCCCCCCCCCCC[n+]1ccccc1` [cetylpyridinium chloride, hexadecylpyridinium chloride monohydrate]?
A: effect on doxorubicin's lethality in RKO-E6 cells (co-treatment with 0.5 μg/ml doxorubicin, 24 h): selectively increased doxorubicin's lethality; effect on camptothecin's lethality (co-treatment with camptothecin): did not synergize with camptothecin
